According to the supplement of paper PMC12819154, “High-throughput peptide-centric local stability assay extends protein–ligand identification to membrane proteins, tissues and bacteria” (Nature Structural & Molecular Biology, 2025):
Some of the results follow. Small differences around the control level are noise.

Sequences of proteins named here, by UniProt entry; tags and fusion partners are left off. A change or cut given only in a name is not applied to a line headed by its entry.
UniProt Q9H1A4, whole entry: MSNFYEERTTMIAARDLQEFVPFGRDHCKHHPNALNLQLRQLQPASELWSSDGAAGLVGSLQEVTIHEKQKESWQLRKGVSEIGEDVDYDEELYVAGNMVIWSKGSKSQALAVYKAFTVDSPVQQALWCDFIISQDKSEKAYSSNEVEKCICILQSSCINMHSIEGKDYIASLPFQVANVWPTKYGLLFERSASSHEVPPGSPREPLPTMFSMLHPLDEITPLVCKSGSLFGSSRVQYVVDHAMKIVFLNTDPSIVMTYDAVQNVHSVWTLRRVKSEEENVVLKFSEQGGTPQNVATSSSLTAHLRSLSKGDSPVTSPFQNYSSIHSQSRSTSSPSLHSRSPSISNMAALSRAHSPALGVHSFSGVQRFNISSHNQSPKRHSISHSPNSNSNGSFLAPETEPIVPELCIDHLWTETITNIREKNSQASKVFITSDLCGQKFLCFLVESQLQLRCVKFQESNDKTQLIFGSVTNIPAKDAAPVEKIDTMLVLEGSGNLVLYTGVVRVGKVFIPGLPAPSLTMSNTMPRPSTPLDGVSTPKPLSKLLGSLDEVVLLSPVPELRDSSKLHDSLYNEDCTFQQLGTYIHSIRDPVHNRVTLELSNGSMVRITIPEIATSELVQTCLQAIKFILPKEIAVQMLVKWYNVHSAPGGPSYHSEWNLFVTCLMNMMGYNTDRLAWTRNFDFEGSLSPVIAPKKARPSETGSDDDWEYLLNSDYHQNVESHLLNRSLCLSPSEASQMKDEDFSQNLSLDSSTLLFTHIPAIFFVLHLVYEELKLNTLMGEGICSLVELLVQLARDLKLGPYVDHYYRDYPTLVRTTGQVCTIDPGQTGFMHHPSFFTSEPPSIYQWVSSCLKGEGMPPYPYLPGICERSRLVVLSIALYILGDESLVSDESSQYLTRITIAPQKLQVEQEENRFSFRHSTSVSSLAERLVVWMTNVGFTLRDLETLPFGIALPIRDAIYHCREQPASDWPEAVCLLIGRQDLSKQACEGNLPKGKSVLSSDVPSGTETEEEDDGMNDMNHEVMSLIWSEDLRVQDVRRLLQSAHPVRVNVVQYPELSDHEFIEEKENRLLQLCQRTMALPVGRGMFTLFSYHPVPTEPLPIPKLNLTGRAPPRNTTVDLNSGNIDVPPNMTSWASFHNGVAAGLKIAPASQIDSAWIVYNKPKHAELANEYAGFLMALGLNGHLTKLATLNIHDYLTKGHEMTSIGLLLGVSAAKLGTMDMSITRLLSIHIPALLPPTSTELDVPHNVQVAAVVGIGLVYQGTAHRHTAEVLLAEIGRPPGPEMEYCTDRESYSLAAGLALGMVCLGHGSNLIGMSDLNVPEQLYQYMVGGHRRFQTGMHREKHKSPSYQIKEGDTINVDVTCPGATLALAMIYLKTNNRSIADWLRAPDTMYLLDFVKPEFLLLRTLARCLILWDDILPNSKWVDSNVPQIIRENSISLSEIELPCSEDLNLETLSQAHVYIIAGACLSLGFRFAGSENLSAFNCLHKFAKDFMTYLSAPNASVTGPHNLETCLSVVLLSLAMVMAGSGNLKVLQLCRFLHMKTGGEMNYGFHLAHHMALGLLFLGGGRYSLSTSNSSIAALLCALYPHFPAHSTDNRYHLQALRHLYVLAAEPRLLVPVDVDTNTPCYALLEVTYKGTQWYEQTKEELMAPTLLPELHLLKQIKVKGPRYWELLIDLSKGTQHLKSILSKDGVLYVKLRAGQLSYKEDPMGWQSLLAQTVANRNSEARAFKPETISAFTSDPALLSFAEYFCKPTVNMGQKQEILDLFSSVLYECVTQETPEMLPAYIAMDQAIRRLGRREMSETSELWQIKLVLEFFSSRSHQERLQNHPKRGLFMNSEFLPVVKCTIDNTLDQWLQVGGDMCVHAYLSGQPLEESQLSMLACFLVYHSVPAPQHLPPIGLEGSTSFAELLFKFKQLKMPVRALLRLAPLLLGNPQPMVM
UniProt Q9BZJ0: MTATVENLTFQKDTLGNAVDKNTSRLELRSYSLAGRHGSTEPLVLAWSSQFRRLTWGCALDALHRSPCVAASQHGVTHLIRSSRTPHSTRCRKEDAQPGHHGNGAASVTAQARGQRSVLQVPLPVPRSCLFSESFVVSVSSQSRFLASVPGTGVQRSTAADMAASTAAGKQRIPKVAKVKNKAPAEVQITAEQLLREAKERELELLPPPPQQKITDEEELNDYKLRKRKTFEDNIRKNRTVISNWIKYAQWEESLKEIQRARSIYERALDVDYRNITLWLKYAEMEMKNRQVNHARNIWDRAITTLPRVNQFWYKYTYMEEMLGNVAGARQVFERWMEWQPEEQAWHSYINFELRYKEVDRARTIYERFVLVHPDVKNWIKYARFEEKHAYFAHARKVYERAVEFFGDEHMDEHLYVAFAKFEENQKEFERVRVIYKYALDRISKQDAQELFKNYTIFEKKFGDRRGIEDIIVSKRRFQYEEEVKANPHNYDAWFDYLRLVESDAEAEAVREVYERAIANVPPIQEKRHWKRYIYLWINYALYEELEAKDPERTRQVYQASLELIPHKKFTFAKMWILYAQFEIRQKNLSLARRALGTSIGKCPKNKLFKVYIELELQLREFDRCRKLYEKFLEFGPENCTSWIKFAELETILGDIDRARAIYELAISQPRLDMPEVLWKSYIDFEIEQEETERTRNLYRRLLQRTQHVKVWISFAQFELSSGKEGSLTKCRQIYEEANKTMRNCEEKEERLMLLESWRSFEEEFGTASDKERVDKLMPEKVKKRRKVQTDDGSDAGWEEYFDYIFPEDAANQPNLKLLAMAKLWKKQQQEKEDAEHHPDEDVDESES
UniProt Q9H116: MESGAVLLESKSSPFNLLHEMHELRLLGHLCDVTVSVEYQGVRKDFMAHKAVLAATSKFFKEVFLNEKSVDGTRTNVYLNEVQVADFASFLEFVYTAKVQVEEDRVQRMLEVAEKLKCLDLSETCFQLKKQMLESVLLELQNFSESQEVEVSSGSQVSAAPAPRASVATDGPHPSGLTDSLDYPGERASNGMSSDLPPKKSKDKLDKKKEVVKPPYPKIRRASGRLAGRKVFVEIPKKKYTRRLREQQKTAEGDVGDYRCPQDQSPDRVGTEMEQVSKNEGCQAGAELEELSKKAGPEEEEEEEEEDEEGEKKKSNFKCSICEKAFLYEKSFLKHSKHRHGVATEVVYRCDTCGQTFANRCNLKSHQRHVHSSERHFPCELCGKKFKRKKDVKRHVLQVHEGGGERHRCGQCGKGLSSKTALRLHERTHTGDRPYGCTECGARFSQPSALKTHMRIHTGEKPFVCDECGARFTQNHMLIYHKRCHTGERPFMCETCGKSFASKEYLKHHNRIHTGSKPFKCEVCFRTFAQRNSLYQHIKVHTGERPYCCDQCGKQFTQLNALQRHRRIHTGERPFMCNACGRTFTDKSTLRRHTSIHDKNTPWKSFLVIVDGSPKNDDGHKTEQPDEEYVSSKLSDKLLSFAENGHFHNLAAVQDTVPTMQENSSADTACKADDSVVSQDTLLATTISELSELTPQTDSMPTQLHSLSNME
UniProt Q9BWP8: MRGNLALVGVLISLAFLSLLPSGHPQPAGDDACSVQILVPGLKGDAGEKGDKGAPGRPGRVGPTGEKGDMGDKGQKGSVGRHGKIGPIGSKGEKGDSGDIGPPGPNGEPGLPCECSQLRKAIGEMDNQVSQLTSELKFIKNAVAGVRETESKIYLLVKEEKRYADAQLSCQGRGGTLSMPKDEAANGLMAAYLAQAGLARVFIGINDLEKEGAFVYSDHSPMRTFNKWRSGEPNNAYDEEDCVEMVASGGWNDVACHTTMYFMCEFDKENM
UniProt Q9H0A8, whole entry: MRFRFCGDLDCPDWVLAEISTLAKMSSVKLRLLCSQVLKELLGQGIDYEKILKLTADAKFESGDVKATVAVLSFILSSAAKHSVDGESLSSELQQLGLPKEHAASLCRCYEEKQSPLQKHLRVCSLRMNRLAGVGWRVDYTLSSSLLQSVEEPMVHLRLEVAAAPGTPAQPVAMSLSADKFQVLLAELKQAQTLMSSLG
UniProt Q9C0B5: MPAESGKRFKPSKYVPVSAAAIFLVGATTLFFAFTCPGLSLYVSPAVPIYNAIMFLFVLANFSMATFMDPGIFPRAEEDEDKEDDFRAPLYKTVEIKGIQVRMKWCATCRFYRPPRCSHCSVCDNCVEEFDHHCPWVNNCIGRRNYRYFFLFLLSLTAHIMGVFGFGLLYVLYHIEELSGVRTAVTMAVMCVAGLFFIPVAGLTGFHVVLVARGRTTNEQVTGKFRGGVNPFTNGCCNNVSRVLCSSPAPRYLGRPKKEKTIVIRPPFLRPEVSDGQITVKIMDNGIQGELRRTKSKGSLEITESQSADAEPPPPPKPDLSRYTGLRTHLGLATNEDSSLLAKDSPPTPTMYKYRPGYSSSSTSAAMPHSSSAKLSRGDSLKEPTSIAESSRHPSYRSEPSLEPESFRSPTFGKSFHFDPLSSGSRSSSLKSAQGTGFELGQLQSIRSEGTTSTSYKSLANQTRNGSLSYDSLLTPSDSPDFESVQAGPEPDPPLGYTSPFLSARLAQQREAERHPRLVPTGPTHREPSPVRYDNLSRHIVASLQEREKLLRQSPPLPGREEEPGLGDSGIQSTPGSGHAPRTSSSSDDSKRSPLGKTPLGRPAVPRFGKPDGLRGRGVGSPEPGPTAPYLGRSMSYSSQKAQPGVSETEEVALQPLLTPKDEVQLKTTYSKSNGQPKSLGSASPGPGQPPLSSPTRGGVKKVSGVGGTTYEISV
UniProt Q9H0K6: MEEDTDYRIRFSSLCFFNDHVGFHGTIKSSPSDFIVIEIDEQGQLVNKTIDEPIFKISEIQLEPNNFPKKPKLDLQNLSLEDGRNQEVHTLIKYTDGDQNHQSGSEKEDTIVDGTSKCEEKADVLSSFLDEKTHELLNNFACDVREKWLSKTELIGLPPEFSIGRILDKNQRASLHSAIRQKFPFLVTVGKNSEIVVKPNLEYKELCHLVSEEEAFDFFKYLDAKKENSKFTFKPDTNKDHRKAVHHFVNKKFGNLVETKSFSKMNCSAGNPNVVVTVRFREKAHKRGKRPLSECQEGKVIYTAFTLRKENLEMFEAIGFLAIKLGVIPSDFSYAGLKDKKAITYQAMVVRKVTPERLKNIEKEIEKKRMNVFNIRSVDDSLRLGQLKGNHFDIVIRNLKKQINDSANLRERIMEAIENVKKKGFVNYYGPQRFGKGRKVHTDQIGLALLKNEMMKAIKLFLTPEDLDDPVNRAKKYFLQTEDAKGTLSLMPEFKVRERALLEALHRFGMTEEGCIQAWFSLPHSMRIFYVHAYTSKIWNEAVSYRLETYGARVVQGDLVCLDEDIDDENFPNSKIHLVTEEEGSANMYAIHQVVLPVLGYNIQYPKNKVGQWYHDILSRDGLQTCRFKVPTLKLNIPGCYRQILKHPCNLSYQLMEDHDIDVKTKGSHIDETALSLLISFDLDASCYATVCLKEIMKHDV
UniProt Q9C073: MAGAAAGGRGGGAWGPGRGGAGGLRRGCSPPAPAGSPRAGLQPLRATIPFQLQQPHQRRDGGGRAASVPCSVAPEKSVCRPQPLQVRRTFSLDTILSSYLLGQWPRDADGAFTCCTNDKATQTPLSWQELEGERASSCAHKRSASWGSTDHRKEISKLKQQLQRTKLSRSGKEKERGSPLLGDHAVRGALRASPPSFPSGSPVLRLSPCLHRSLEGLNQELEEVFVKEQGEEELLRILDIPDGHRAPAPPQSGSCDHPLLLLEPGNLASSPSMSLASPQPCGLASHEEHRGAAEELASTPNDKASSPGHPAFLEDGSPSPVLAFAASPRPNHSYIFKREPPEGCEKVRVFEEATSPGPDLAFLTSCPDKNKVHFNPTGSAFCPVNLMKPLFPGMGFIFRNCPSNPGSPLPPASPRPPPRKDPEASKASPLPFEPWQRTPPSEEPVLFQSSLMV
UniProt Q9C004: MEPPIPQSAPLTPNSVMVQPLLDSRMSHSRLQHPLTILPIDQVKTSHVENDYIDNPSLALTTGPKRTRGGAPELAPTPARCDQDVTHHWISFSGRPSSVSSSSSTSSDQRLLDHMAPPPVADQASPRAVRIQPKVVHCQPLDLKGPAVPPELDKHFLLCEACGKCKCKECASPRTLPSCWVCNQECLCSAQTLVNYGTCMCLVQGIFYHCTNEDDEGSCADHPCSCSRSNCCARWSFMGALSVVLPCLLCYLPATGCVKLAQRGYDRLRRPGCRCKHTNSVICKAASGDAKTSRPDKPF

Each target was assayed with CN[C@@H]1C[C@H]2O[C@@](C)([C@@H]1OC)n1c3ccccc3c3c4c(c5c6ccccc6n2c5c31)C(=O)NC4 [staurosporine] (assay: log2 fold change of tryptic peptide abundance, ligand vs vehicle (limited proteolysis) (log2 ratio); higher = more trypsin-susceptible (destabilized)). Conditions: ligand concentration: 20 uM; sample: K562 cleared lysate; digestion: 4 min, 22 C (HT-PELSA RT4min, Orbitrap Astral).

| Target | log2 fold change |
| --- | --- |
| ANAPC1 (peptide sequence: STSSPSLHSR, peptide start residue: 331) (UniProt Q9H1A4) | 0.191 |
| CRNKL1 (peptide sequence: VNQFWYK, peptide start residue: 309) (UniProt Q9BZJ0) | 0.41 |
| GZF1 (peptide sequence: NDDGHKTEQPDEEYVSSK, peptide start residue: 616) (UniProt Q9H116) | -0.274 |
| NLRP1 (peptide sequence: AASHVAQANLK, peptide start residue: 1020) (UniProt Q9C000) | -0.371 |
| COLEC11 (peptide sequence: YADAQLSCQGR, peptide start residue: 163) (UniProt Q9BWP8) | 0.312 |
| COMMD4 (peptide sequence: ELLGQGIDYEK, peptide start residue: 40) (UniProt Q9H0A8) | 0.265 |
| ZDHHC5 (peptide sequence: SEGTTSTSYK, peptide start residue: 448) (UniProt Q9C0B5) | -0.502 |
| PUS7L (peptide sequence: NQEVHTLIK, peptide start residue: 85) (UniProt Q9H0K6) | -0.276 |
| FAM117A (peptide sequence: GSPLLGDHAVR, peptide start residue: 177) (UniProt Q9C073) | 0.204 |
| SPRY4 (peptide sequence: LLDHMAPPPVADQASPR, peptide start residue: 111) (UniProt Q9C004) | 0.206 |

In a second layout: entries from further up.
Target	log2 fold change
ANAPC1 (peptide sequence: STSSPSLHSR, peptide start residue: 331) (UniProt Q9H1A4)	0.191
COLEC11 (peptide sequence: YADAQLSCQGR, peptide start residue: 163) (UniProt Q9BWP8)	0.312
